37 targets from the supplement of paper PMC11006884 can be followed below.

Sequences of proteins named here, by UniProt entry; tags and fusion partners are left off. A change or cut given only in a name is not applied to a line headed by its entry.
UniProt P51858: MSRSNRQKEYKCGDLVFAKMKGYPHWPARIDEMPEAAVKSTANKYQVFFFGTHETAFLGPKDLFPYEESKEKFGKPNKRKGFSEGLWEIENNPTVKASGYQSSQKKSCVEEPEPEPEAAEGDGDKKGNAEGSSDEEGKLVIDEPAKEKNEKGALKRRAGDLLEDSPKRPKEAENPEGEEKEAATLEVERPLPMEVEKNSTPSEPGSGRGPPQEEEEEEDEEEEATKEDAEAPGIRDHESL
UniProt P57772: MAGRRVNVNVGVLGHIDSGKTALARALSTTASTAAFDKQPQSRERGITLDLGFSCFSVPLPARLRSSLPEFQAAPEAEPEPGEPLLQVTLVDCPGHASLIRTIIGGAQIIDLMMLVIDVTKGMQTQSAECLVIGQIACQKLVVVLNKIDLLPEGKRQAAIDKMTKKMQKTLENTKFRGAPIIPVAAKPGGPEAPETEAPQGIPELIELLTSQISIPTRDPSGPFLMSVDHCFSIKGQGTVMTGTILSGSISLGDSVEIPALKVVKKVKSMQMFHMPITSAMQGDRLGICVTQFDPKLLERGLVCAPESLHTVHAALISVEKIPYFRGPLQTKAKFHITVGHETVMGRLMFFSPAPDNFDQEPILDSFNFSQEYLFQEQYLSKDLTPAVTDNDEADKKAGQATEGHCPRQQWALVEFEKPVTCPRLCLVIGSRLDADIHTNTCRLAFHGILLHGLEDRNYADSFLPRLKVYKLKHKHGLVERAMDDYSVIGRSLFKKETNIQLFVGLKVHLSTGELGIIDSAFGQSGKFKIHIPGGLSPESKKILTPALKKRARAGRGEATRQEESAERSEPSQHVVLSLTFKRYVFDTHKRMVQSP
UniProt P56192: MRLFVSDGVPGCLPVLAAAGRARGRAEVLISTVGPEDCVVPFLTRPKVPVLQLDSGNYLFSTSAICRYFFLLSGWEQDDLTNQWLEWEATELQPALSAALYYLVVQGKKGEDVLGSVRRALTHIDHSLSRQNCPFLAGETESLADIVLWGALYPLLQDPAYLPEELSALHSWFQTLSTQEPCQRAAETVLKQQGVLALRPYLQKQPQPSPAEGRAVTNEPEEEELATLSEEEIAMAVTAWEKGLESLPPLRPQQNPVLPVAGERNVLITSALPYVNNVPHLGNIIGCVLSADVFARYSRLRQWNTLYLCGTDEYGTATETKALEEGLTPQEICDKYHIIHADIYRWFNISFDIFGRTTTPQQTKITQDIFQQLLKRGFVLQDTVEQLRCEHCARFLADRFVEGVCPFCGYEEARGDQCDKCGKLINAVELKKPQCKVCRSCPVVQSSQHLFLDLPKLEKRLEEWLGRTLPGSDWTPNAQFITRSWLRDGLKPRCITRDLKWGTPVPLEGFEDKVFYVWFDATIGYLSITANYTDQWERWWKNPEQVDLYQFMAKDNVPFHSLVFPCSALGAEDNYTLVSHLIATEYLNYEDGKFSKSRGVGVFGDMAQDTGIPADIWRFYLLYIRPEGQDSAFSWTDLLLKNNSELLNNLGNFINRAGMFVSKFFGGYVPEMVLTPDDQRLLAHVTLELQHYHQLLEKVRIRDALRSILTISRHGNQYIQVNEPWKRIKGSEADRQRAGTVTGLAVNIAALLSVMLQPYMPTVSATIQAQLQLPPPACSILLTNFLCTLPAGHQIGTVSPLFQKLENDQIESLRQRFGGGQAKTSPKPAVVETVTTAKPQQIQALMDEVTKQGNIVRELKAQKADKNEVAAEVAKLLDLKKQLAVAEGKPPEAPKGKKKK
UniProt P53597: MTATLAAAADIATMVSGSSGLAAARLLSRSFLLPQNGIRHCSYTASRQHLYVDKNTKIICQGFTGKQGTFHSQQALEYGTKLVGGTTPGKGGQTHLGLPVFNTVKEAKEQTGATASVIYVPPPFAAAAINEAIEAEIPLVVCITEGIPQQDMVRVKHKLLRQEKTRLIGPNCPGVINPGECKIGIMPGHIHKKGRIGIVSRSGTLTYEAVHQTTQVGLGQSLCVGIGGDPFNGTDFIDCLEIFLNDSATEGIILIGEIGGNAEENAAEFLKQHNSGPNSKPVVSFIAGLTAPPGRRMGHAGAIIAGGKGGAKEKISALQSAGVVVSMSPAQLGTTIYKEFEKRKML
UniProt P52209: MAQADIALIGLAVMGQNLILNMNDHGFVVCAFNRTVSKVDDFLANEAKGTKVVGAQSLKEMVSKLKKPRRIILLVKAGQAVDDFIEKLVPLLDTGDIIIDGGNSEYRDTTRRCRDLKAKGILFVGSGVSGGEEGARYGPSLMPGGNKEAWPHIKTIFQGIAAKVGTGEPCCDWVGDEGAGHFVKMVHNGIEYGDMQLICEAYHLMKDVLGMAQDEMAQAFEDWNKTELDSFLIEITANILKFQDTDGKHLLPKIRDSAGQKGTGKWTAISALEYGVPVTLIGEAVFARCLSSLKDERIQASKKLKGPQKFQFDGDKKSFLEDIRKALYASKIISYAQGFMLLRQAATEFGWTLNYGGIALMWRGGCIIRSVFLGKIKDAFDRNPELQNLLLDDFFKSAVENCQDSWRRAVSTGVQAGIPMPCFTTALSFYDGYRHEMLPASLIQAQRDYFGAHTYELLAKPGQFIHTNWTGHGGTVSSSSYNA
UniProt P53350, whole entry, looked up: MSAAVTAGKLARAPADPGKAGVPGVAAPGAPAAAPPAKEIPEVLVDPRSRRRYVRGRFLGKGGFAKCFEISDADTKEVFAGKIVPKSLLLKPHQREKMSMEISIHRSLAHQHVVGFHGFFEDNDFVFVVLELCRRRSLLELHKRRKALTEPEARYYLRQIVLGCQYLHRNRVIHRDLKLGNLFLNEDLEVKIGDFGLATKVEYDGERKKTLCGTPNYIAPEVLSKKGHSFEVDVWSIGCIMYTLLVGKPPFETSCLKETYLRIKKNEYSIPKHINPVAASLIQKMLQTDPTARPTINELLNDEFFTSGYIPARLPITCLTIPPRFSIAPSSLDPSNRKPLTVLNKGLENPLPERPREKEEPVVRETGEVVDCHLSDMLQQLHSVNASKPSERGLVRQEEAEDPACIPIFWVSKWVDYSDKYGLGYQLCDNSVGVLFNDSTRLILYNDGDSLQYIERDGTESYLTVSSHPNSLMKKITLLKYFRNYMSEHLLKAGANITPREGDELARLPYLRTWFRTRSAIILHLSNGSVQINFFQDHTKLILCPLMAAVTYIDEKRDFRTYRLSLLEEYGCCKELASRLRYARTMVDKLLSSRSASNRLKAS
UniProt P52789: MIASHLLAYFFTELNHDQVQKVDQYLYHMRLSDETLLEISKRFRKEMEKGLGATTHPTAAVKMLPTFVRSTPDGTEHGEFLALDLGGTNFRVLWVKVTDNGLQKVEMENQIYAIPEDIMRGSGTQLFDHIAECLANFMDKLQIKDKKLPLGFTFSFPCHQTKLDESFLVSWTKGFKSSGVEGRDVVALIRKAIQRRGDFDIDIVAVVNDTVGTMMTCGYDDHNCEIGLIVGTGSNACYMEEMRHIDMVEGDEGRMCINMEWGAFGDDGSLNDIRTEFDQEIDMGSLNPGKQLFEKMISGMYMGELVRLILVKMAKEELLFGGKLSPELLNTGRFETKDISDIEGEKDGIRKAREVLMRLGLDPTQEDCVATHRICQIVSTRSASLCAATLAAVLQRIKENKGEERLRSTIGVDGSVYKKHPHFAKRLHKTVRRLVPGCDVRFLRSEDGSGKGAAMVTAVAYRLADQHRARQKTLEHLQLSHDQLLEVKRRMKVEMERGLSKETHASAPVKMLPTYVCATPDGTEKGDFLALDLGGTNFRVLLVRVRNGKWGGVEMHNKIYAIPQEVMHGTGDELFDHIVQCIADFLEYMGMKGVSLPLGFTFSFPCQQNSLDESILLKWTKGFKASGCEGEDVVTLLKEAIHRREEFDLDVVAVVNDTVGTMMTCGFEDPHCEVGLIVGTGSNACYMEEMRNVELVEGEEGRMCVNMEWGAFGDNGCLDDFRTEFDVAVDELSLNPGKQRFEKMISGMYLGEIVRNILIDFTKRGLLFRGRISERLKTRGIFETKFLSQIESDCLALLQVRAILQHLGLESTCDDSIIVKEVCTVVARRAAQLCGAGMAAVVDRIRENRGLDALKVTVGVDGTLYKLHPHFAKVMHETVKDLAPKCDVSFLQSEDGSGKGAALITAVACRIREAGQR
UniProt P60953, whole entry, looked up: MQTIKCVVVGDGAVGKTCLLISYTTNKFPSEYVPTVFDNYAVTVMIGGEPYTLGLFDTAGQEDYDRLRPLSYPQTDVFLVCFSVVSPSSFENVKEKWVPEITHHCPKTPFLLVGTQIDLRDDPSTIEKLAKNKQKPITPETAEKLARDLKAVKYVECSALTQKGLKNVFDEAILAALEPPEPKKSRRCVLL
UniProt P52565: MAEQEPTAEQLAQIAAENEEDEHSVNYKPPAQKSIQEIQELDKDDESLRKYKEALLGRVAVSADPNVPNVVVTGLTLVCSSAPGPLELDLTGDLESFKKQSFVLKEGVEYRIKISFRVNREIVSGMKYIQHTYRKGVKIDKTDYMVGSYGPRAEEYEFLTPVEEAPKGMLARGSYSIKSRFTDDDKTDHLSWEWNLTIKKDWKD
UniProt P60981: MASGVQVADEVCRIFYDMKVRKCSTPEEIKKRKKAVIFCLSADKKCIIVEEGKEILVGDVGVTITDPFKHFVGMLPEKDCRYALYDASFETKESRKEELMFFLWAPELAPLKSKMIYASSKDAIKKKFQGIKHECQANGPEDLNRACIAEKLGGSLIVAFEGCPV
UniProt P56182: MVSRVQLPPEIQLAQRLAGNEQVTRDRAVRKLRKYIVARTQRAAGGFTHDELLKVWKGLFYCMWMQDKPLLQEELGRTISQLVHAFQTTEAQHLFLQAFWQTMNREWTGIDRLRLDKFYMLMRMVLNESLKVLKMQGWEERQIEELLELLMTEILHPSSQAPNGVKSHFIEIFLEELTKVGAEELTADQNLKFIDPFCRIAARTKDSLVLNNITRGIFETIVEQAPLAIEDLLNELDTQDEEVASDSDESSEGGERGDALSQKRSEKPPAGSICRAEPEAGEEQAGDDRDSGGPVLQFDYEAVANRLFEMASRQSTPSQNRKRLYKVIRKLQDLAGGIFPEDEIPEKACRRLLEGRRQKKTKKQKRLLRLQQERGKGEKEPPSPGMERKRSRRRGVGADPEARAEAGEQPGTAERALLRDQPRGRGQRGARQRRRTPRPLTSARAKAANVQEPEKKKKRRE
UniProt P55072, whole entry, looked up: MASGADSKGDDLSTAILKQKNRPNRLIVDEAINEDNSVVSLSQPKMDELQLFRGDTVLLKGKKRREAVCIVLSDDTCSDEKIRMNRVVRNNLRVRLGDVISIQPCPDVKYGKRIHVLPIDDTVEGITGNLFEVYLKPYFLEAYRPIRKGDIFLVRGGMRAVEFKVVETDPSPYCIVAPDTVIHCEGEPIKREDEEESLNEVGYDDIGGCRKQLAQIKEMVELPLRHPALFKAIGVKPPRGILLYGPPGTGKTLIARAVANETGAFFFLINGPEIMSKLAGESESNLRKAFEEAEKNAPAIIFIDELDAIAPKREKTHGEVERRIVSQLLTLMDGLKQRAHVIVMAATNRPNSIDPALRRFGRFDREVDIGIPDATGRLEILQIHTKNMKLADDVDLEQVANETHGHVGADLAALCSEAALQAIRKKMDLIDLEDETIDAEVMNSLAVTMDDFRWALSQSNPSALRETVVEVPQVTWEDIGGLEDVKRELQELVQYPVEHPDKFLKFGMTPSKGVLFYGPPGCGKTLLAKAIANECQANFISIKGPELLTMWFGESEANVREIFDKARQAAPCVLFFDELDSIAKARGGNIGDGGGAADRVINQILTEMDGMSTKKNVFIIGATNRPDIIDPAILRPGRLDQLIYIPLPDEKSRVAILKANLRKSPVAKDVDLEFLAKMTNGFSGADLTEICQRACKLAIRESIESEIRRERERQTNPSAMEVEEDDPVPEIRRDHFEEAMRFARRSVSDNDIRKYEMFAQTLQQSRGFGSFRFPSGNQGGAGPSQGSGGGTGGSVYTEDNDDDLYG
UniProt P54136: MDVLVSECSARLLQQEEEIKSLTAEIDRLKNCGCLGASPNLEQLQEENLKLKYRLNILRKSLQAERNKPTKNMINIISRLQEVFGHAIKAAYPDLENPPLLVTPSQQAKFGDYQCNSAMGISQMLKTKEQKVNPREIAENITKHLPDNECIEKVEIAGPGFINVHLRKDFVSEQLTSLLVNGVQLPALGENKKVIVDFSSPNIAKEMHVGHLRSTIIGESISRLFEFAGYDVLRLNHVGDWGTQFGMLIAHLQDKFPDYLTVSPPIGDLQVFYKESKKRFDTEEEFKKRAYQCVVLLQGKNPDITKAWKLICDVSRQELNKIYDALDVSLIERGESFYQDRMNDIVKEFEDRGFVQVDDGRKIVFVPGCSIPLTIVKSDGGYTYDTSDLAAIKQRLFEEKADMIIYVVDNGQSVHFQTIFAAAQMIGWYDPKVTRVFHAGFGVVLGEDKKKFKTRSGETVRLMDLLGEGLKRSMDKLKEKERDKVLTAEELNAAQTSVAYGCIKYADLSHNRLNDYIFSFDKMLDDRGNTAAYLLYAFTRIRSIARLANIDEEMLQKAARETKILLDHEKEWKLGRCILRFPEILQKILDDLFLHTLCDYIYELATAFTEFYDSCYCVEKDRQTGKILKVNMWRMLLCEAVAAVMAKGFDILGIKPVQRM

The entries are a selection whose mix differs from that of the whole data set.

Compound in the experiment: COC(=O)C#Cc1ccccc1 [methyl 3-phenylpropiolate]
Description: log2 ratio of iodoacetamide-alkyne labeling of the cysteine site, DMSO over compound (competition); higher = stronger covalent engagement of the cysteine by the compound, active = 1 or more. The note with it: 500 µM; treatment time 1 h; system: HEK293T cell lysate. The gist of the method:
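Reporter intensities give each cysteine's log2 competition ratio as the mean of control channels over the mean of compound channels. The samples were HEK293T lysate (2 mg/mL) given vehicle or electrophile (500 µM, 1 h, ambient temperature), then iodoacetamide alkyne (1 h), followed by click coupling to sCIP-TMT reagents, pooling, trypsin digestion overnight at 37 °C, streptavidin enrichment, acid elution, Orbitrap Eclipse LC-MS/MS with FAIMS and FragPipe quantification. Duplicate channels and three replicates were run, and cysteines quantified in only one replicate were discarded.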
Consider HDGF C12 (UniProt P51858), for which the “log2 ratio of iodoacetamide-alkyne labeling” value (from here on “log2 ratio”) is inactive: 0.127.

With EEFSEC C55 (UniProt P57772), the “log2 ratio” value was inactive: -0.0519.

For MARS C566 (UniProt P56192), the “log2 ratio” value is inactive: 0.0165.

Regarding SUCLG1 C181 (UniProt P53597), the “log2 ratio” value was active: 1.72.

Consider UniProt P61160_C221, for which the “log2 ratio” value was inactive: 0.528.

As to UniProt P52564_C38, the “log2 ratio” value was inactive: 0.302.

PPP5C C77 (UniProt P53041): the “log2 ratio” value was inactive: 0.135.

As to PSMD4 C37 (UniProt P55036), the “log2 ratio” value is inactive: 0.105.

Turning to PGD C170 (UniProt P52209), the “log2 ratio” value is inactive: -0.0784.

With HNRNPA3 C94 (UniProt P51991), the “log2 ratio” value was inactive: 0.122.

For the target PLK1 C405 (UniProt P53350), the “log2 ratio” value is inactive: 0.726.

Regarding CASP7 C116 (UniProt P55210), the “log2 ratio” value was inactive: 0.552.

Turning to PGD C289 (UniProt P52209), the “log2 ratio” value is inactive: 0.0113.

Take HK2 C628 (UniProt P52789): the “log2 ratio” value is inactive: -0.0599.

Regarding UniProt P60953_C157, the “log2 ratio” value was inactive: -0.0113.

For the target UniProt P60709_C272, the “log2 ratio” value was inactive: -0.088.

In the case of ARHGDIA C79 (UniProt P52565), the “log2 ratio” value was inactive: -0.0733.

UniProt P61077_C111: the “log2 ratio” value was inactive: 0.106.

For the target NUP98 C1027 (UniProt P52948), the “log2 ratio” value was inactive: 0.378.

On to POLR2F C76 (UniProt P61218), for which the “log2 ratio” value was inactive: 0.148.

Consider KPNA2 C133 (UniProt P52292), for which the “log2 ratio” value was inactive: 0.525.

Turning to ADAR C304 (UniProt P55265), the “log2 ratio” value was inactive: 0.277.

Take DSTN C12 (UniProt P60981): the “log2 ratio” value was inactive: -0.0619.

As to RRP1 C274 (UniProt P56182), the “log2 ratio” value is inactive: 0.423.

Consider UniProt P55072_C105, for which the “log2 ratio” value is inactive: -0.00692.

Consider MSH6 C1117 (UniProt P52701), for which the “log2 ratio” value is inactive: 0.26.

For the target NAP1L1 C88 (UniProt P55209), the “log2 ratio” value was inactive: -0.0373.

With ACTR3 C34 (UniProt P61158), the “log2 ratio” value is inactive: 0.0333.

For MSH6 C615 (UniProt P52701), the “log2 ratio” value is inactive: 0.105.

In the case of SEC24C C433 (UniProt P53992), the “log2 ratio” value was active: 1.1.

For UniProt P62241_C100, the “log2 ratio” value was inactive: 0.0677.

On to RARS C115 (UniProt P54136), for which the “log2 ratio” value was inactive: -0.0624.

Turning to ADAR C499 (UniProt P55265), the “log2 ratio” value is inactive: 0.18.

Turning to UniProt P61978_C205, the “log2 ratio” value is inactive: 0.0241.

As to UniProt P55196_C960, the “log2 ratio” value is inactive: 0.273.

Turning to EIF3B C700 (UniProt P55884), the “log2 ratio” value was inactive: 0.436.

For the target PSMD4 C9 (UniProt P55036), the “log2 ratio” value is inactive: -0.106.
